Experimental data reported in doi:10.1101/2025.08.11.669663.
These are yes or no findings as the source states them, for the method shown. Binding seen in cells or lysates may run through a third protein. A yes stands for co-enrichment or nearness to the bait. Other partners may have been found. A no says only that the protein was not detected with the bait.

Protein sequences, listed by entry. Tags and fused reporters are not part of them.
UniProt P00441, whole entry: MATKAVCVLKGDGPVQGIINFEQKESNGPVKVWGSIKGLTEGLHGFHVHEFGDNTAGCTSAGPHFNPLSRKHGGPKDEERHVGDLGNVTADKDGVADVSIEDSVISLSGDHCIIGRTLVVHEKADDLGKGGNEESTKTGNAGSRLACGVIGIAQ

Biological target: HA-tagged SOD1 (UniProt P00441)
Experiment: affinity purification with mass spectrometry

binding	Binder
no binding	GPX1 (protein, UniProt P07203 1-203) MCAARLAAAAAAAQSVYAFSARPLAGGEPVSLGSLRGKVLLIENVASLUGTTVRDYTQMNELQRRLGPRGLVVLGFPCNQFGHQENAKNEEILNSLKYVRPGGGFEPNFMLFEKCEVNGAGAHPLFAFLREALPAPSDDATALMTDPKLITWSPVCRNDVAWNFEKFLVGPDGVPLRRYSRRFQTIDIEPDIEALLSQGPSCA
binds	catalase (CAT) (protein, UniProt P04040 1-527) MADSRDPASDQMQHWKEQRAAQKADVLTTGAGNPVGDKLNVITVGPRGPLLVQDVVFTDEMAHFDRERIPERVVHAKGAGAFGYFEVTHDITKYSKAKVFEHIGKKTPIAVRFSTVAGESGSADTVRDPRGFAVKFYTEDGNWDLVGNNTPIFFIRDPILFPSFIHSQKRNPQTHLKDPDMVWDFWSLRPESLHQVSFLFSDRGIPDGHRHMNGYGSHTFKLVNANGEAVYCKFHYKTDQGIKNLSVEDAARLSQEDPDYGIRDLFNAIATGKYPSWTFYIQVMTFNQAETFPFNPFDLTKVWPHKDYPLIPVGKLVLNRNPVNYFAEVEQIAFDPSNMPPGIEASPDKMLQGRLFAYPDTHRHRLGPNYLHIPVNCPYRARVANYQRDGPMCMQDNQGGAPNYYPNSFGAPEQQPSALEHSIQYSGEVRRFNTANDDNVTQVRAFYVNVLNEEQRKRLCENIAGHLKDAQIFIQKKAVKNFTEVHPDYGSHIQALLDKYNAEKPKNAIHTFVQSGSHLAAREKANL
binds	PRIM2 (a DNA primase subunit) (protein, UniProt P49643 1-509) MEFSGRKWRKLRLAGDQRNASYPHCLQFYLQPPSENISLIEFENLAIDRVKLLKSVENLGVSYVKGTEQYQSKLESELRKLKFSYRENLEDEYEPRRRDHISHFILRLAYCQSEELRRWFIQQEMDLLRFRFSILPKDKIQDFLKDSQLQFEAISDEEKTLREQEIVASSPSLSGLKLGFESIYKIPFADALDLFRGRKVYLEDGFAYVPLKDIVAIILNEFRAKLSKALALTARSLPAVQSDERLQPLLNHLSHSYTGQDYSTQGNVGKISLDQIDLLSTKSFPPCMRQLHKALRENHHLRHGGRMQYGLFLKGIGLTLEQALQFWKQEFIKGKMDPDKFDKGYSYNIRHSFGKEGKRTDYTPFSCLKIILSNPPSQGDYHGCPFRHSDPELLKQKLQSYKISPGGISQILDLVKGTHYQVACQKYFEMIHNVDDCGFSLNHPNQFFCESQRILNGGKDIKKEPIQPETPQPKPSVQKTKDASSALASLNSSLEMDMEGLEDYFSEDS
binds	GPX8 (protein, UniProt Q8TED1 1-209) MEPLAAYPLKCSGPRAKVFAVLLSIVLCTVTLFLLQLKFLKPKINSFYAFEVKDAKGRTVSLEKYKGKVSLVVNVASDCQLTDRNYLGLKELHKEFGPSHFSVLAFPCNQFGESEPRPSKEVESFARKNYGVTFPIFHKIKILGSEGEPAFRFLVDSSKKEPRWNFWKYLVNPEGQVVKFWKPEEPIEVIRPDIAALVRQVIIKKKEDL
binds	TXN (protein, UniProt P10599 1-105) MVKQIESKTAFQEALDAAGDKLVVVDFSATWCGPCKMIKPFFHSLSEKYSNVIFLEVDVDDCQDVASECEVKCMPTFQFFKKGQKVGEFSGANKEKLEATINELV
binds	peroxiredoxin 2 (PRDX2) (protein, UniProt P32119 1-198) MASGNARIGKPAPDFKATAVVDGAFKEVKLSDYKGKYVVLFFYPLDFTFVCPTEIIAFSNRAEDFRKLGCEVLGVSVDSQFTHLAWINTPRKEGGLGPLNIPLLADVTRRLSEDYGVLKTDEGIAYRGLFIIDGKGVLRQITVNDLPVGRSVDEALRLVQAFQYTDEHGEVCPAGWKPGSDTIKPNVDDSKEYFSKHN
